Experimental data: PubChem BioAssay AID1224828 (NIAID, 2016)

Screen: 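Knock-downs that increase or decrease LPS-induced p65 nuclear translocation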 (primary screen)
System: mouse RAW264.7 G9 macrophage reporter cells (GFP-p65, Tnf promoter-mCherry)
Reagents: siRNA pool against mouse genes, 100 nM
Duration: 2 days siRNA transfection, then 40 min LPS before fixation
Conditions: LPS (Salmonella minnesota R595) at 10 ng/ml
Measurement: 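Imaged p65 nuclear translocation ratio, normalised to the plate median, converted to robust z-scores and averaged across two replicates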
Reading the numbers: p65 translocation robust z-score: higher = more nuclear NF-kappaB p65 after LPS than the plate median; nuclear/cytoplasmic p65 ratio: higher = more nuclear NF-kappaB p65
Active means: 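Called active when z exceeds 3.3 or falls under -1.56 (median of Tlr4 controls), giving activity score of at least 50; no calls for control wells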
Calls: active = hit (p65 shift raised or lowered); inactive = no clear change
Here is a random part of about 17,000 deposited reagents. Of all reagents, 762 (4.5%) were called active. 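Active calls include both raised and lowered p65 entry, mostly lowered; wells with fewer than 50 cells lack a z-score.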 Raw values are not corrected between plates. A number with no mark means an inactive call.

| gene | p65 translocation robust z-score | nuclear/cytoplasmic p65 ratio, rep 1 | nuclear/cytoplasmic p65 ratio, rep 2 | low cell count flag |
| --- | --- | --- | --- | --- |
| Ccdc51 | 0.24 | 1.4 | 1.49 | enough cells to score |
| Slc66a2 | – | 1.32 | 1.28 | fewer than 50 cells per well; well left out of scoring |
| Gramd1c | – | 1.28 | 1.24 | fewer than 50 cells per well; well left out of scoring |
| Tspan2 | 0.26 | 1.38 | 1.52 | enough cells to score |
| Dock3 | -0.12 | 1.45 | 1.37 | enough cells to score |
| Erich2 | – | 1.25 | 1.35 | fewer than 50 cells per well; well left out of scoring |
| H1f9 | 0.59 | 1.82 | 1.55 | enough cells to score |
| Ube2l3 | -0.52 | 1.39 | 1.48 | enough cells to score |
| Amph | 0.19 | 1.63 | 1.72 | enough cells to score |
| Bud23 | 0.45 | 1.45 | 1.32 | enough cells to score |
| Scn1b | -0.42 | 1.47 | 1.37 | enough cells to score |
| Nrg1 | -1.2 | 1.53 | 1.49 | enough cells to score |
| Or5g25 | -0.5 | 1.6 | 1.49 | enough cells to score |
| Pdap1 | – | 1.42 | 1.3 | fewer than 50 cells per well; well left out of scoring |
| Jam2 | 0.35 | 1.53 | 1.54 | enough cells to score |
| Ca4 | 0.01 | 1.6 | 1.78 | enough cells to score |
| Slc10a2 | 2 | 1.67 | 1.93 | enough cells to score |
| Nppc | 1.83 | 2.04 | 1.76 | enough cells to score |
| Pcdhb12 | 0.53 | 1.51 | 1.24 | enough cells to score |
| Reep5 | – | 1.22 | 1.56 | fewer than 50 cells per well; well left out of scoring |
| Erg28 | 0.32 | 1.56 | 1.51 | enough cells to score |
| Tex264 | 1.74 | 1.65 | 1.33 | enough cells to score |
| Entpd1 | 1.78 | 1.68 | 1.62 | enough cells to score |
| Capn7 | 0.49 | 1.68 | 1.84 | enough cells to score |
| Cct4 | 0.09 | 1.43 | 1.39 | enough cells to score |
| Ubl7 | – | 1.54 | 1.45 | fewer than 50 cells per well; well left out of scoring |
| Bmp8b | 1.68 | 1.55 | 1.76 | enough cells to score |
| Ocm | -0.18 | 1.88 | 1.34 | enough cells to score |
| Cbr4 | -0.67 | 1.42 | 1.8 | enough cells to score |
| Slc38a10 | -0.42 | 1.31 | 1.08 | enough cells to score |
| Cnnm3 | 0.51 | 1.56 | 1.42 | enough cells to score |
| Pnliprp1 | -1.76 (active) | 1.07 | 1.35 | enough cells to score |
| Nr4a1 | -0.49 | 1.4 | 1.33 | enough cells to score |
| Slc25a40 | -0.9 | 1.45 | 1.41 | enough cells to score |
| Gm5108 | 0.66 | 1.81 | 1.65 | enough cells to score |
| Hpd | 0.3 | 1.45 | 1.44 | enough cells to score |
| Tmem88 | – | 1.11 | 1.51 | fewer than 50 cells per well; well left out of scoring |
| F3 | 0.99 | 1.65 | 1.44 | enough cells to score |
| Tpr | -1.05 | 1.34 | 1.38 | enough cells to score |
| Elp5 | -0.24 | 1.49 | 1.47 | enough cells to score |
| Fbxl3 | -1.08 | 1.29 | 1.26 | enough cells to score |
| Tpp1 | -1.38 | 1.27 | 1.21 | enough cells to score |
| Romo1 | – | 1.81 | 0 | fewer than 50 cells per well; well left out of scoring |
| Zdhhc4 | 0.2 | 1.53 | 1.19 | enough cells to score |
| F830045P16Rik | 0.31 | 1.67 | 1.48 | enough cells to score |
| Eci2 | – | 1.4 | 1.36 | fewer than 50 cells per well; well left out of scoring |
| Nme1 | – | 1.64 | 1.23 | fewer than 50 cells per well; well left out of scoring |
| Or4x15 | -1.65 (active) | 1.36 | 1.18 | enough cells to score |
| Slc46a2 | 1.51 | 1.58 | 1.4 | enough cells to score |
| Abcd4 | 0.94 | 1.47 | 1.85 | enough cells to score |
| Or13a26 | 0.12 | 1.46 | 1.38 | enough cells to score |
| Tbc1d22a | 0.61 | 1.66 | 1.89 | enough cells to score |
| Prx | 0.21 | 1.51 | 1.45 | enough cells to score |
| Thsd7b | 0.39 | 1.62 | 1.86 | enough cells to score |
| Dhx8 | – | 1.17 | 1.25 | fewer than 50 cells per well; well left out of scoring |
| Herpud2 | – | 1.33 | 1.34 | fewer than 50 cells per well; well left out of scoring |
| A930018P22Rik | 2 | 1.63 | 1.81 | enough cells to score |
| Tmc4 | – | 1.35 | 1.17 | fewer than 50 cells per well; well left out of scoring |
| Acads | 0.01 | 1.62 | 1.62 | enough cells to score |

Taken from above.
Acads, low cell count flag → enough cells to score
Value of Erich2 under “low cell count flag”: fewer than 50 cells per well; well left out of scoring
Result for Tex264 under “nuclear/cytoplasmic p65 ratio, rep 2”: 1.33
Dock3, p65 translocation robust z-score → -0.12
For “nuclear/cytoplasmic p65 ratio, rep 2”, Tspan2 has 1.52
Under “low cell count flag”, Zdhhc4 is entered as enough cells to score
